# No constants are given. Whether binding was seen depends on the method and setting. In cells and extracts the contact can be indirect. Some binding calls cover weakened binding; strength is not graded here.
# The chains behind the UniProt entries cited, without tags or fusion partners.
# UniProt P08047: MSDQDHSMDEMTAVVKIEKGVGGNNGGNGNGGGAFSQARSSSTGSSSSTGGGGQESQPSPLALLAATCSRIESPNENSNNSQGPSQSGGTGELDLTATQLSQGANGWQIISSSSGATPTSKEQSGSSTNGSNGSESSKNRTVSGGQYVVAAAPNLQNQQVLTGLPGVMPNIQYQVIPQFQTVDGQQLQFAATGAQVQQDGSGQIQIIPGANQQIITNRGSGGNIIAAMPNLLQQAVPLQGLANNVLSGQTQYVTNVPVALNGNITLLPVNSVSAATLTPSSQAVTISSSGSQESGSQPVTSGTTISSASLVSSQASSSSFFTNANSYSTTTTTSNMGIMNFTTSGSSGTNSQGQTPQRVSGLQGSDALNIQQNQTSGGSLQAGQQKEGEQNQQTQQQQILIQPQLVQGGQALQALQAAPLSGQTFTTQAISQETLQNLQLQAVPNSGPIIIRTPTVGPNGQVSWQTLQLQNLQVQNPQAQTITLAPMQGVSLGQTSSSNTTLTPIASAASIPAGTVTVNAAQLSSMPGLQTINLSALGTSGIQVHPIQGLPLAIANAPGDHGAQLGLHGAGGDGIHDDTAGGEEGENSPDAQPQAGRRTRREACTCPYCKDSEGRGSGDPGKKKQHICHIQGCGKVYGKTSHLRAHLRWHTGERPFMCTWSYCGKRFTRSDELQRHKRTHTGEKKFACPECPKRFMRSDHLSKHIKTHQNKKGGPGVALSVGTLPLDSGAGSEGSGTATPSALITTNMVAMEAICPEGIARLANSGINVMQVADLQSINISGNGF
# UniProt P17096: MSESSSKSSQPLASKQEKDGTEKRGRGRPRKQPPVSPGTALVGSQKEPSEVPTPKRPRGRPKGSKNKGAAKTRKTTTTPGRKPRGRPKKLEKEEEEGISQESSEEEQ
# T1: Transketolase (TKT), overexpressed in KYSE30 cells (human) (UniProt P29401)
# T1 sequence: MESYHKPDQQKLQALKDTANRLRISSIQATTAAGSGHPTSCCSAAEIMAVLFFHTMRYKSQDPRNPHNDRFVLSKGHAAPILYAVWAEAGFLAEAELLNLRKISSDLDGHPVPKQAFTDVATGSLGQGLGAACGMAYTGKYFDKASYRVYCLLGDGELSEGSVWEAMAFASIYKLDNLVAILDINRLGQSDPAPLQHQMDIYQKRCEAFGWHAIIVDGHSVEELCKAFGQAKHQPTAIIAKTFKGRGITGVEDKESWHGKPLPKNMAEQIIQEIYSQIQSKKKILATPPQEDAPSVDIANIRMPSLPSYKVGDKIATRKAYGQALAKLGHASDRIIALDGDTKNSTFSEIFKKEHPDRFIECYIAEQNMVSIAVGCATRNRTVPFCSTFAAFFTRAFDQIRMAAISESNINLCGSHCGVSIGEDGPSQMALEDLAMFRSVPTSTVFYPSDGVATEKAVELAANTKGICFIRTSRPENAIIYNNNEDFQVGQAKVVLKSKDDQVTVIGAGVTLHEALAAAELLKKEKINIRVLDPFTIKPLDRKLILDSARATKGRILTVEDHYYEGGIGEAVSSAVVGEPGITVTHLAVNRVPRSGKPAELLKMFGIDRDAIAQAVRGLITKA
# Experiments:
# [1] = target: Transcription factor specificity protein 1 (Sp1) (human (endogenous in KYSE30)) (UniProt P08047); assay: co-IP; TKT-overexpressed KYSE30 cells; RIPA lysate, 800 ug lysate with 5 ug antibody against Sp1 or IgG overnight at 4 C, Protein-A/G beads 2 h, western blot
# [2] = target: T1, Transketolase (TKT), overexpressed in KYSE30 cells (human); assay: co-IP; TKT-overexpressed KYSE30 cells; RIPA lysate, 800 ug lysate with 5 ug antibody against TKT or IgG overnight at 4 C, Protein-A/G beads 2 h, western blot
# [3] = target: High-mobility group AT-hook 1 (HMGA1) (human (endogenous in KYSE30)) (UniProt P17096); assay: co-IP; endogenous proteins in KYSE30 cells; RIPA lysate, 800 ug lysate with 5 ug antibody against HMGA1 or IgG overnight at 4 C, Protein-A/G beads 2 h, western blot
binding [1],binding [2],binding [3],Molecule
binds,no binding,–,High-mobility group AT-hook 1 (HMGA1) (from UniProt P17096 1-107)
–,no binding,binds,Transcription factor specificity protein 1 (Sp1) (from UniProt P08047 1-785)
–,–,no binding,"Transketolase (TKT), endogenous (enzyme, UniProt P29401 1-623) MESYHKPDQQKLQALKDTANRLRISSIQATTAAGSGHPTSCCSAAEIMAVLFFHTMRYKSQDPRNPHNDRFVLSKGHAAPILYAVWAEAGFLAEAELLNLRKISSDLDGHPVPKQAFTDVATGSLGQGLGAACGMAYTGKYFDKASYRVYCLLGDGELSEGSVWEAMAFASIYKLDNLVAILDINRLGQSDPAPLQHQMDIYQKRCEAFGWHAIIVDGHSVEELCKAFGQAKHQPTAIIAKTFKGRGITGVEDKESWHGKPLPKNMAEQIIQEIYSQIQSKKKILATPPQEDAPSVDIANIRMPSLPSYKVGDKIATRKAYGQALAKLGHASDRIIALDGDTKNSTFSEIFKKEHPDRFIECYIAEQNMVSIAVGCATRNRTVPFCSTFAAFFTRAFDQIRMAAISESNINLCGSHCGVSIGEDGPSQMALEDLAMFRSVPTSTVFYPSDGVATEKAVELAANTKGICFIRTSRPENAIIYNNNEDFQVGQAKVVLKSKDDQVTVIGAGVTLHEALAAAELLKKEKINIRVLDPFTIKPLDRKLILDSARATKGRILTVEDHYYEGGIGEAVSSAVVGEPGITVTHLAVNRVPRSGKPAELLKMFGIDRDAIAQAVRGLITKA"
no binding,–,–,"Transketolase (TKT), overexpressed in KYSE30 cells (enzyme, UniProt P29401 1-623) MESYHKPDQQKLQALKDTANRLRISSIQATTAAGSGHPTSCCSAAEIMAVLFFHTMRYKSQDPRNPHNDRFVLSKGHAAPILYAVWAEAGFLAEAELLNLRKISSDLDGHPVPKQAFTDVATGSLGQGLGAACGMAYTGKYFDKASYRVYCLLGDGELSEGSVWEAMAFASIYKLDNLVAILDINRLGQSDPAPLQHQMDIYQKRCEAFGWHAIIVDGHSVEELCKAFGQAKHQPTAIIAKTFKGRGITGVEDKESWHGKPLPKNMAEQIIQEIYSQIQSKKKILATPPQEDAPSVDIANIRMPSLPSYKVGDKIATRKAYGQALAKLGHASDRIIALDGDTKNSTFSEIFKKEHPDRFIECYIAEQNMVSIAVGCATRNRTVPFCSTFAAFFTRAFDQIRMAAISESNINLCGSHCGVSIGEDGPSQMALEDLAMFRSVPTSTVFYPSDGVATEKAVELAANTKGICFIRTSRPENAIIYNNNEDFQVGQAKVVLKSKDDQVTVIGAGVTLHEALAAAELLKKEKINIRVLDPFTIKPLDRKLILDSARATKGRILTVEDHYYEGGIGEAVSSAVVGEPGITVTHLAVNRVPRSGKPAELLKMFGIDRDAIAQAVRGLITKA"

# Source: article PMC11289123
